Paper doi:10.1101/2024.11.15.623779
No constants are given. Whether binding was seen depends on the method and setting. In cells and extracts the contact can be indirect. Some binding calls cover weakened binding; strength is not graded here. Tags and fused reporters may be left off the sequences shown.

By UniProt entry, the sequences of proteins in these tests, tags left out. Where a name states a change or a piece, a line headed by the entry shows the natural chain unless it says otherwise. Residues count along the entry.
UniProt P11021, 19-654: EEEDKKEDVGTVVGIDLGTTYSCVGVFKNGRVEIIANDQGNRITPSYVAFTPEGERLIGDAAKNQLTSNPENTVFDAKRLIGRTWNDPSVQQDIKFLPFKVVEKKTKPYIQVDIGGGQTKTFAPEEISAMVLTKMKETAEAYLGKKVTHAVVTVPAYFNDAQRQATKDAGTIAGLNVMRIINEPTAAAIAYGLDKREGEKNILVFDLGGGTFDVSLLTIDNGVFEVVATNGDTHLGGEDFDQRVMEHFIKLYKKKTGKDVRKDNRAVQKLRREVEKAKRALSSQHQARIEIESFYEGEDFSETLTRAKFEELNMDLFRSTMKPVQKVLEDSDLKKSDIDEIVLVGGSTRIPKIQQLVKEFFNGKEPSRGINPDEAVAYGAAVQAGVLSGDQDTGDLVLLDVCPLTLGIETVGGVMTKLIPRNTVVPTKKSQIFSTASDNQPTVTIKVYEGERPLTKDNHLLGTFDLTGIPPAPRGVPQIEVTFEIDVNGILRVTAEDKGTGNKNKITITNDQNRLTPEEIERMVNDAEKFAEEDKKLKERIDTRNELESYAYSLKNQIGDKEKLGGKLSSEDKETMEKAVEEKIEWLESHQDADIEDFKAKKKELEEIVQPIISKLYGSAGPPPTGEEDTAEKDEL

Biological target: T1, Glucosylceramidase beta 1 (GCase) Leu444Pro, HA-tagged (human) (UniProt P04062)
T1 sequence: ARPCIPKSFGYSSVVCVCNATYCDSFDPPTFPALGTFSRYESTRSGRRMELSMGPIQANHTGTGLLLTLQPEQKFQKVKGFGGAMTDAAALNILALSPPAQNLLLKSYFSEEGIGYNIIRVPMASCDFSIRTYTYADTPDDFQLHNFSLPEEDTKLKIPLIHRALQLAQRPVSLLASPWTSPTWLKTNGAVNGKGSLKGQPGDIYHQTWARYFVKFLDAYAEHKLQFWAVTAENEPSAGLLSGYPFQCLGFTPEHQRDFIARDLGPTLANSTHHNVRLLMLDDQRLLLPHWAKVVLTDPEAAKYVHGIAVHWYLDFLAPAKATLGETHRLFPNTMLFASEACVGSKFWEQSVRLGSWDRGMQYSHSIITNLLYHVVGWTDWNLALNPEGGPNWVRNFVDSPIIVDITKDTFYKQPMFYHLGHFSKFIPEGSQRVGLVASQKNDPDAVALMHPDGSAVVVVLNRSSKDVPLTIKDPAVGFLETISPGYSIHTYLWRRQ
Test: co-IP

binding: binds
Substance: Binding immunoglobulin protein (endogenous in HEK293) (from UniProt P11021 19-654)
